PubChem BioAssay AID1224828, NIAID, 2016

Purpose: 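Knock-downs that increase or decrease LPS-induced p65 nuclear translocation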 (primary screen)
Cells: mouse RAW264.7 G9 macrophage reporter cells (GFP-p65, Tnf promoter-mCherry)
Knock-down reagent: siRNA pool against mouse genes, 100 nM
Time to read-out: 2 days siRNA transfection, then 40 min LPS before fixation
Challenge: LPS (Salmonella minnesota R595) at 10 ng/ml
Read-out: 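Imaged p65 nuclear translocation ratio, normalised to the plate median, converted to robust z-scores and averaged across two replicates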
Direction: p65 translocation robust z-score: higher = more nuclear NF-kappaB p65 after LPS than the plate median; nuclear/cytoplasmic p65 ratio: higher = more nuclear NF-kappaB p65
Active means: 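Active if robust z is above 3.3 (negative regulators) or below -1.56, the Tlr4 control median (positive regulators); activity score 50 or more; control wells not called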
Meaning of the calls: active = hit (p65 shift raised or lowered); inactive = no clear change
The whole screen tested about 17,000 reagents; this is a part drawn at random. 762 of them (4.5%) were called active. 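Active calls include both raised and lowered p65 entry, mostly lowered; wells with fewer than 50 cells lack a z-score.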 Raw values are not corrected between plates. Reagents against one gene are numbered here.

| gene knocked down | reagent no. | p65 translocation robust z-score | nuclear/cytoplasmic p65 ratio, rep 1 | nuclear/cytoplasmic p65 ratio, rep 2 | low cell count flag | Call |
| --- | --- | --- | --- | --- | --- | --- |
| Wdr5 (GeneID 140858) | 1 | -1.45 | 1.31 | 1.39 | enough cells to score | inactive |
| Tax1bp1 (GeneID 52440) | 1 | -1.37 | 1.41 | 1.25 | enough cells to score | inactive |
| Abhd11 (GeneID 68758) | 1 | 0.11 | 1.56 | 1.59 | enough cells to score | inactive |
| Zfp764 (GeneID 233893) | 1 | -1.41 | 1.26 | 1.33 | enough cells to score | inactive |
| Nrxn1 (GeneID 18189) | 1 | 0.99 | 2.09 | 1.49 | enough cells to score | inactive |
| Tex12 (GeneID 66654) | 1 | – | 1.05 | 1.09 | fewer than 50 cells per well; well left out of scoring | inactive |
| Gstm6 (GeneID 14867) | 1 | 0.48 | 1.73 | 1.6 | enough cells to score | inactive |
| Rnaset2b (GeneID 68195) | 1 | 0.52 | 1.6 | 1.65 | enough cells to score | inactive |
| Meaf6 (GeneID 70088) | 1 | -0.06 | 1.16 | 1.3 | enough cells to score | inactive |
| Mki67 (GeneID 17345) | 1 | 0.81 | 1.51 | 1.48 | enough cells to score | inactive |
| Pfkfb2 (GeneID 18640) | 1 | -0.17 | 1.63 | 1.38 | enough cells to score | inactive |
| Sh3bp2 (GeneID 24055) | 1 | -0.95 | 1.45 | 1.38 | enough cells to score | inactive |
| Gm4736 (GeneID 100502592) | 1 | -0.4 | 1.44 | 1.53 | enough cells to score | inactive |
| Slc50a1 (GeneID 19729) | 1 | – | 1.28 | 1.2 | fewer than 50 cells per well; well left out of scoring | inactive |
| Atp5mg (GeneID 27425) | 1 | 0.98 | 1.47 | 1.72 | enough cells to score | inactive |
| Gatad1 (GeneID 67210) | 1 | – | 1.73 | 1.35 | fewer than 50 cells per well; well left out of scoring | inactive |
| Parvb (GeneID 170736) | 1 | – | 1.24 | 1.11 | fewer than 50 cells per well; well left out of scoring | inactive |
| Spmip5 (GeneID 67507) | 1 | – | 1.29 | 1.1 | fewer than 50 cells per well; well left out of scoring | inactive |
| Or6c65 (GeneID 258930) | 1 | – | 1.33 | 1.18 | fewer than 50 cells per well; well left out of scoring | inactive |
| Keg1 (GeneID 64697) | 1 | 1.62 | 1.82 | 1.62 | enough cells to score | inactive |
| Ly6d (GeneID 17068) | 1 | -0.42 | 1.67 | 1.47 | enough cells to score | inactive |
| Nck2 (GeneID 17974) | 1 | -0.18 | 1.41 | 1.33 | enough cells to score | inactive |
| Aifm3 (GeneID 72168) | 1 | 0.66 | 1.51 | 1.52 | enough cells to score | inactive |
| Rad23a (GeneID 19358) | 1 | -0.05 | 1.5 | 1.52 | enough cells to score | inactive |
| Nmu (GeneID 56183) | 1 | 0.36 | 1.48 | 1.48 | enough cells to score | inactive |
| Npc1l1 (GeneID 237636) | 1 | 0 | 1.78 | 1.47 | enough cells to score | inactive |
| Rbm38 (GeneID 56190) | 1 | -0.21 | 1.31 | 1.19 | enough cells to score | inactive |
| Srp68 (GeneID 217337) | 1 | – | 1.26 | 1.15 | fewer than 50 cells per well; well left out of scoring | inactive |
| Plrg1 (GeneID 53317) | 1 | -1.07 | 1.23 | 1.37 | enough cells to score | inactive |
| Cisd1 (GeneID 52637) | 1 | -0.76 | 1.47 | 1.65 | enough cells to score | inactive |
| Spag16 (GeneID 66722) | 1 | 0.03 | 1.28 | 1.27 | enough cells to score | inactive |
| Defa20 (GeneID 68009) | 1 | – | 1.63 | 1.25 | fewer than 50 cells per well; well left out of scoring | inactive |
| Tnfrsf25 (GeneID 85030) | 1 | -1.22 | 1.39 | 1.31 | enough cells to score | inactive |
| Adra2b (GeneID 11552) | 1 | 0.27 | 1.6 | 1.56 | enough cells to score | inactive |
| Tspan15 (GeneID 70423) | 1 | – | 1.29 | 1.29 | fewer than 50 cells per well; well left out of scoring | inactive |
| Nelfe (GeneID 27632) | 1 | -0.59 | 1.34 | 1.16 | enough cells to score | inactive |
| Ccdc181 (GeneID 74895) | 1 | – | 1.19 | 1 | fewer than 50 cells per well; well left out of scoring | inactive |
| Or7d10 (GeneID 258336) | 1 | – | 1.34 | 1.05 | fewer than 50 cells per well; well left out of scoring | inactive |
| Or5aq1b (GeneID 258841) | 1 | -0.61 | 1.7 | 1.44 | enough cells to score | inactive |
| Plekhs1 (GeneID 226245) | 1 | -1.85 | 1.24 | 1.22 | enough cells to score | active |

An excerpt of the results above:
| gene knocked down | reagent no. | p65 translocation robust z-score | nuclear/cytoplasmic p65 ratio, rep 1 | nuclear/cytoplasmic p65 ratio, rep 2 | low cell count flag | Call |
| --- | --- | --- | --- | --- | --- | --- |
| Nmu (GeneID 56183) | 1 | 0.36 | 1.48 | 1.48 | enough cells to score | inactive |
| Npc1l1 (GeneID 237636) | 1 | 0 | 1.78 | 1.47 | enough cells to score | inactive |
| Rbm38 (GeneID 56190) | 1 | -0.21 | 1.31 | 1.19 | enough cells to score | inactive |
| Srp68 (GeneID 217337) | 1 | – | 1.26 | 1.15 | fewer than 50 cells per well; well left out of scoring | inactive |
| Plrg1 (GeneID 53317) | 1 | -1.07 | 1.23 | 1.37 | enough cells to score | inactive |
| Cisd1 (GeneID 52637) | 1 | -0.76 | 1.47 | 1.65 | enough cells to score | inactive |
| Spag16 (GeneID 66722) | 1 | 0.03 | 1.28 | 1.27 | enough cells to score | inactive |
| Defa20 (GeneID 68009) | 1 | – | 1.63 | 1.25 | fewer than 50 cells per well; well left out of scoring | inactive |
| Tnfrsf25 (GeneID 85030) | 1 | -1.22 | 1.39 | 1.31 | enough cells to score | inactive |
| Adra2b (GeneID 11552) | 1 | 0.27 | 1.6 | 1.56 | enough cells to score | inactive |

Additional records:
| gene knocked down | reagent no. | p65 translocation robust z-score | nuclear/cytoplasmic p65 ratio, rep 1 | nuclear/cytoplasmic p65 ratio, rep 2 | low cell count flag | Call |
| --- | --- | --- | --- | --- | --- | --- |
| Slc25a19 (GeneID 67283) | 1 | 0.05 | 1.58 | 1.47 | enough cells to score | inactive |
| Ikzf4 (GeneID 22781) | 1 | -0.15 | 1.46 | 1.17 | enough cells to score | inactive |
| Ikzf4 (GeneID 22781) | 2 | -0.22 | 1.41 | 1.44 | enough cells to score | inactive |
| Erich3 (GeneID 209601) | 1 | – | 1.38 | 1.38 | fewer than 50 cells per well; well left out of scoring | inactive |
| Id1 (GeneID 15901) | 1 | – | 1.12 | 1.18 | fewer than 50 cells per well; well left out of scoring | inactive |
| Defa-rs12 (GeneID 13221) | 1 | -0.2 | 1.53 | 1.53 | enough cells to score | inactive |
| Cd300c2 (GeneID 140497) | 1 | 0.56 | 1.51 | 1.44 | enough cells to score | inactive |
| A930037J23RIK | 1 | -1.33 | 1.39 | 1.34 | enough cells to score | inactive |
| Ramp3 (GeneID 56089) | 1 | 1.97 | 2.11 | 1.49 | enough cells to score | inactive |
| Gpr137 (GeneID 107173) | 1 | -0.06 | 1.47 | 1.6 | enough cells to score | inactive |
| Fam3a (GeneID 66294) | 1 | – | 2.03 | 1.41 | fewer than 50 cells per well; well left out of scoring | inactive |
| Foxn2 (GeneID 14236) | 1 | -0.75 | 1.29 | 1.31 | enough cells to score | inactive |
| Or5an10 (GeneID 258682) | 1 | 1.57 | 1.84 | 1.63 | enough cells to score | inactive |
| Asph (GeneID 65973) | 1 | -2.12 | 1.18 | 1.32 | enough cells to score | active |
| Ncapd2 (GeneID 68298) | 1 | – | 2 | 1.74 | fewer than 50 cells per well; well left out of scoring | inactive |
| Pkd2l1 (GeneID 329064) | 1 | -0.41 | 1.57 | 1.53 | enough cells to score | inactive |
| Basp1 (GeneID 70350) | 1 | -0.98 | 1.45 | 1.48 | enough cells to score | inactive |
| Cyp7b1 (GeneID 13123) | 1 | -0.05 | 1.45 | 1.39 | enough cells to score | inactive |
| Gnb5 (GeneID 14697) | 1 | – | 1.01 | 1.15 | fewer than 50 cells per well; well left out of scoring | inactive |
| Galp (GeneID 232836) | 1 | – | 1.15 | 1.21 | fewer than 50 cells per well; well left out of scoring | inactive |
| Or14j6 (GeneID 258374) | 1 | 0.53 | 1.71 | 1.47 | enough cells to score | inactive |
| Ciao2a (GeneID 68250) | 1 | 0.46 | 1.36 | 1.59 | enough cells to score | inactive |
| Dph2 (GeneID 67728) | 1 | 0.56 | 1.54 | 1.43 | enough cells to score | inactive |
| 9530056K15Rik (GeneID 320650) | 1 | 0.97 | 1.48 | 1.68 | enough cells to score | inactive |
| Cyp2d13 (GeneID 68444) | 1 | 1.36 | 1.78 | 2 | enough cells to score | inactive |
| Krtap16-3 (GeneID 71369) | 1 | -1.63 | 1.31 | 1.4 | enough cells to score | active |
| Btd (GeneID 26363) | 1 | 0.29 | 1.69 | 1.63 | enough cells to score | inactive |
| Or13c7d (GeneID 29849) | 1 | -0.02 | 1.5 | 1.6 | enough cells to score | inactive |
| Grid2 (GeneID 14804) | 1 | 2.83 | 1.95 | 1.6 | enough cells to score | inactive |
| Papolg (GeneID 216578) | 1 | – | 1.51 | 1.63 | fewer than 50 cells per well; well left out of scoring | inactive |
| Zmat3 (GeneID 22401) | 1 | -0.59 | 1.57 | 1.38 | enough cells to score | inactive |
| Sp2 (GeneID 78912) | 1 | 0.02 | 1.51 | 1.6 | enough cells to score | inactive |
| Prrc1 (GeneID 73137) | 1 | – | 1.02 | 1.1 | fewer than 50 cells per well; well left out of scoring | inactive |
| Mmp8 (GeneID 17394) | 1 | 0.78 | 1.33 | 1.44 | enough cells to score | inactive |
| Adam19 (GeneID 11492) | 1 | -0.52 | 1.4 | 1.74 | enough cells to score | inactive |
